Assay results published in article PMC4652056.
For at least one entry, the source does not settle the construct or the ends of the probe. Negatives hold for the conditions tested. Tags and fusion partners may be left off the protein sequences shown.

Target: T1, BnWRI1 (Brassica napus) (UniProt Q2EPY6)
T1 sequence (looked up, limits assumed): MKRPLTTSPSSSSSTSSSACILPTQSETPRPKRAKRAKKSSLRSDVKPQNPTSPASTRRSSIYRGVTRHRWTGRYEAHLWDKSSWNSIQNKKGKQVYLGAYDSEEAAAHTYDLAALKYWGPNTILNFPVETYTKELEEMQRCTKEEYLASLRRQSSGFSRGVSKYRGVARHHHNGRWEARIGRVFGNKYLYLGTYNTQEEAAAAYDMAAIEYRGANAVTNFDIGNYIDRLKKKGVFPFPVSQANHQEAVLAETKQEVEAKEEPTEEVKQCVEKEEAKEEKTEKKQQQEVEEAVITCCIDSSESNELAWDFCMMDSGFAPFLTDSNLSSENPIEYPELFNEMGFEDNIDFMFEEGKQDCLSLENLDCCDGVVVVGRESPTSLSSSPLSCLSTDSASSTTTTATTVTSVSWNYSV
Assay: EMSA
Settings: 0.4 ug protein; 20 mM Tris-HCl pH 8.0, 250 mM NaCl, 2 mM MgCl2, 1% glycerol, 1 mg/ml BSA, 1 mM DTT, 1 h at 4 C; 6% native PAGE; recombinant protein; protein details: His (pET28a); label: none (UV-visualized); probe letters rebuilt from the primers and the genome

Sequence | binding result
GAATTCTGTTGAGTTACGAATTGGAGAATGGCTCAAAGCATCCGTACCTATTTTAAGTAGACCAAATAGTAGAATAACATAAACTACAAGGCTAGAACTAAAACACTTGTAAAATTAAGGGACTTAGAGAAAAATTACAGTCCAAAAATTTCCTCGAATAATTCGCTGTTTTTTTTATAATATAGTCTTGCTCCTGAAATCTGACGAACATAAGCTCTTTTCGCAAAACACACATCACACACCATTTTCACAACATCGTACTTATCGCCTTCCTCTCTCTCTCAATACCTCTCTCAATGAGCTC (double strand) [KASI promoter (AW-box)] | binds
GAATTCTGTTGAGTTACGAATTGGAGAATGGCTCAAAGCATCCGTACCTATTTTAAGTAGACCAAATAGTAGAATAACATAAACTACAAGGCTAGAACTAAAACACTTGTAAAATTAAGGGACTTAGAGAAAAATTACAGTCCAAAAATTTTCCCAAATAATTCGCTGTTTTTTTTATAATATAGTCTTGCTCCTGAAATCTGACGAACATAAGCTCTTTTCGCAAAACACACATCACACACCATTTTCACAACATCGTACTTATCGCCTTCCTCTCTCTCTCAATACCTCTCTCAATGAGCTC (double strand) [KASI promoter mutant AW-box [TnCnA](n)7[CG]] | no binding
